According to paper PMC12772958:
Like-named read-outs stand apart in the source and are kept apart here. Results are given in words; binding and its absence hold for the method and conditions named. Binding seen in cells or lysates may run through a third protein. A yes stands for co-enrichment or nearness to the bait. Other partners may have been found.

Sequences of proteins named here, by UniProt entry; tags and fusion partners are left off.
UniProt P46939: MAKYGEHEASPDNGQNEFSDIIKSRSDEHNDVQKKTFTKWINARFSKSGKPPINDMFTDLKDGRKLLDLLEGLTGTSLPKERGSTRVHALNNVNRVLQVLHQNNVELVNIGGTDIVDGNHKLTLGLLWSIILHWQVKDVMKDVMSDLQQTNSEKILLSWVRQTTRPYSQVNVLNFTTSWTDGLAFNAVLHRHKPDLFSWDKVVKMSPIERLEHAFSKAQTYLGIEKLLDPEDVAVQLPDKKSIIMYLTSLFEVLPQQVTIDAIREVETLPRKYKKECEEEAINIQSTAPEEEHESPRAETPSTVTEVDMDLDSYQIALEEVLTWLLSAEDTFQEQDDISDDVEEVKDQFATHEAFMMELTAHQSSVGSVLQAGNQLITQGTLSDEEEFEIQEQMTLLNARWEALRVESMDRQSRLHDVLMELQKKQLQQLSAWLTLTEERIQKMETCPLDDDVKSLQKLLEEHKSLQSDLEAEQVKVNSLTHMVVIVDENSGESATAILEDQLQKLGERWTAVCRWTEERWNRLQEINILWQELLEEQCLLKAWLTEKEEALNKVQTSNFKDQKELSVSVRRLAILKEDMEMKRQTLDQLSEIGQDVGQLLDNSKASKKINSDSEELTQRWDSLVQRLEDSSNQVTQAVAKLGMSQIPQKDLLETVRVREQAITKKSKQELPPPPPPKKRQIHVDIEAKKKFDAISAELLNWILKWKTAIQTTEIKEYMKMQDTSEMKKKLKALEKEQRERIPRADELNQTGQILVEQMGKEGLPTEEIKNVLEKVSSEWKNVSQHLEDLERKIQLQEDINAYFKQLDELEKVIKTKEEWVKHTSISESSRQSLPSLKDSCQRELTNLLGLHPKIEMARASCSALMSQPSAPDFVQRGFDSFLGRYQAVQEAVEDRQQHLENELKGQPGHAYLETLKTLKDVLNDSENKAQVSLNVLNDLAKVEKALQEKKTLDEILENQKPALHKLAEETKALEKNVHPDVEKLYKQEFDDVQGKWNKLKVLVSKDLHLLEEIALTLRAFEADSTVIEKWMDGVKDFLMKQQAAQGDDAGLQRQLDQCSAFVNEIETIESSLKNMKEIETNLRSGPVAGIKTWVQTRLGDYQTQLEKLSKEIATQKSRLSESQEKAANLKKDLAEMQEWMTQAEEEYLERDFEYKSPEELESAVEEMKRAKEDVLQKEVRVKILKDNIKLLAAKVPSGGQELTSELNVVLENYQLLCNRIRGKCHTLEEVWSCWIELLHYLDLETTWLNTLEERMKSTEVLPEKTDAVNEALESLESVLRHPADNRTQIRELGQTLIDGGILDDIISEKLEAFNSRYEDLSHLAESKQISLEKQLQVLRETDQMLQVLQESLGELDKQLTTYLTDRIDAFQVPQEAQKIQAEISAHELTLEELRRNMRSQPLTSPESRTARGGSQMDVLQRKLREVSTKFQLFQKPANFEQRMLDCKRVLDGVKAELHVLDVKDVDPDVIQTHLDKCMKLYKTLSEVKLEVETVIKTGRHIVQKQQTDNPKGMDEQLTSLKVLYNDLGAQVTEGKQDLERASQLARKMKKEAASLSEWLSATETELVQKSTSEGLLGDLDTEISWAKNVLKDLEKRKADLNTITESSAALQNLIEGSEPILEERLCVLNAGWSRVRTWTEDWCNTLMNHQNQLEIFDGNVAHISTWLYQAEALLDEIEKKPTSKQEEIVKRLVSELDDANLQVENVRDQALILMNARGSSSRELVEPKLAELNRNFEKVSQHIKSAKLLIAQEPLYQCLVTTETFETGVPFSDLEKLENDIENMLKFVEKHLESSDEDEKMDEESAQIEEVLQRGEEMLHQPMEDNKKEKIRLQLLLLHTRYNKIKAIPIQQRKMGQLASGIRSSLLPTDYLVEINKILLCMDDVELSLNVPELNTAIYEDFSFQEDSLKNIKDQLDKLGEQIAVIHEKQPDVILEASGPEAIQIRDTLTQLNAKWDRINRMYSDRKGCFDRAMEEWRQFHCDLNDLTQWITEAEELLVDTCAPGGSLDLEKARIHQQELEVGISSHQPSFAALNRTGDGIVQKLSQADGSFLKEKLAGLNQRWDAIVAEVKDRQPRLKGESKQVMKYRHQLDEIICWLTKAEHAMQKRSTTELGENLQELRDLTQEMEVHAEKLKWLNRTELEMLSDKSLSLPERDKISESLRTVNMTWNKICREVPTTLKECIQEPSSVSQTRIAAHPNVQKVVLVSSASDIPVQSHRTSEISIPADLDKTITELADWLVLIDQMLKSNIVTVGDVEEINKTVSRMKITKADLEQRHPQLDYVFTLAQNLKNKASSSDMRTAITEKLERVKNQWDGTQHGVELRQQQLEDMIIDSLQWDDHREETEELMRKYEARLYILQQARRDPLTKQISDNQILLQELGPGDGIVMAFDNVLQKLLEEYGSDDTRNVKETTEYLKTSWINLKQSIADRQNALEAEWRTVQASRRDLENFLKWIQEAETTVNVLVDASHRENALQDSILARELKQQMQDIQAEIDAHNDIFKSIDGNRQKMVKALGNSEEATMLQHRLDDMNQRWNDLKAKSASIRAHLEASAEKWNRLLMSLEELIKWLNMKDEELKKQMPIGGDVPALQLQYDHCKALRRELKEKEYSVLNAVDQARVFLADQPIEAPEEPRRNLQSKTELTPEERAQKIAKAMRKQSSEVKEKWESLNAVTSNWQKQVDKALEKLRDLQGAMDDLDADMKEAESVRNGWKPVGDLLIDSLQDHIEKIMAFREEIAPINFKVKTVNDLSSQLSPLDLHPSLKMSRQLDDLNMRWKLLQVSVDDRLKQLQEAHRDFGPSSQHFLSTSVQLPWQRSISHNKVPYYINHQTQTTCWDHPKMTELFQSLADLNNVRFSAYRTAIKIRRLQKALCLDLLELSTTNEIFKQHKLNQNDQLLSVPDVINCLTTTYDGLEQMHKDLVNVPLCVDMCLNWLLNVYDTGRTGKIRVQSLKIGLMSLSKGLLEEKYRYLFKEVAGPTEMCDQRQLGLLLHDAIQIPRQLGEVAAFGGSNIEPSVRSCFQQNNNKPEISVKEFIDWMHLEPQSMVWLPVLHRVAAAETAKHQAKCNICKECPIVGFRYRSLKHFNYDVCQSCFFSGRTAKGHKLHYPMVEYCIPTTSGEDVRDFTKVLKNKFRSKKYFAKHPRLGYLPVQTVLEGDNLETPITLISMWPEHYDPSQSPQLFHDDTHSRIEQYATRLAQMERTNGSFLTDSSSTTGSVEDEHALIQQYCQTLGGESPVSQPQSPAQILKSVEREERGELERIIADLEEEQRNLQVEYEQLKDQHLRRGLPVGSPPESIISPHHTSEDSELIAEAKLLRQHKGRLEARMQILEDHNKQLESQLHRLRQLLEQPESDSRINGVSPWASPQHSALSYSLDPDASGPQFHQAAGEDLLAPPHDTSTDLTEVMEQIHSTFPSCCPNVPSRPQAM
UniProt Q96AC1: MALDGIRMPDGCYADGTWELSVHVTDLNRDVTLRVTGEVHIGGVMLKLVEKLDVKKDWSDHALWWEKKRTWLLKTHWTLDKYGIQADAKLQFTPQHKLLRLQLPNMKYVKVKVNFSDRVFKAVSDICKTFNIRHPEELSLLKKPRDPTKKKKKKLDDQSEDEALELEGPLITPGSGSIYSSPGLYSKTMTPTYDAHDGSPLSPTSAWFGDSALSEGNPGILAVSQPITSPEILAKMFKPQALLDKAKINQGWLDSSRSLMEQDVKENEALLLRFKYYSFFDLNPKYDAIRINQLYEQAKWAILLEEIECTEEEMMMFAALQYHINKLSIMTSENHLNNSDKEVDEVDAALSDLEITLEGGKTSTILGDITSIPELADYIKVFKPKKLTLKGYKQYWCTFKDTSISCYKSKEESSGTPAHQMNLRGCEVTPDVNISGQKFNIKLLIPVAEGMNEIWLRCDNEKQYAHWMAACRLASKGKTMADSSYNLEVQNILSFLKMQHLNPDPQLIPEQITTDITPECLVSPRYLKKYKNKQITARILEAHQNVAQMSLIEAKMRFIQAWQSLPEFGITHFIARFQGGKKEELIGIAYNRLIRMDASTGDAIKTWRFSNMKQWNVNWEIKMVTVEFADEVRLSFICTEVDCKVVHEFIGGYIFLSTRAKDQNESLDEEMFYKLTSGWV
UniProt Q96B97: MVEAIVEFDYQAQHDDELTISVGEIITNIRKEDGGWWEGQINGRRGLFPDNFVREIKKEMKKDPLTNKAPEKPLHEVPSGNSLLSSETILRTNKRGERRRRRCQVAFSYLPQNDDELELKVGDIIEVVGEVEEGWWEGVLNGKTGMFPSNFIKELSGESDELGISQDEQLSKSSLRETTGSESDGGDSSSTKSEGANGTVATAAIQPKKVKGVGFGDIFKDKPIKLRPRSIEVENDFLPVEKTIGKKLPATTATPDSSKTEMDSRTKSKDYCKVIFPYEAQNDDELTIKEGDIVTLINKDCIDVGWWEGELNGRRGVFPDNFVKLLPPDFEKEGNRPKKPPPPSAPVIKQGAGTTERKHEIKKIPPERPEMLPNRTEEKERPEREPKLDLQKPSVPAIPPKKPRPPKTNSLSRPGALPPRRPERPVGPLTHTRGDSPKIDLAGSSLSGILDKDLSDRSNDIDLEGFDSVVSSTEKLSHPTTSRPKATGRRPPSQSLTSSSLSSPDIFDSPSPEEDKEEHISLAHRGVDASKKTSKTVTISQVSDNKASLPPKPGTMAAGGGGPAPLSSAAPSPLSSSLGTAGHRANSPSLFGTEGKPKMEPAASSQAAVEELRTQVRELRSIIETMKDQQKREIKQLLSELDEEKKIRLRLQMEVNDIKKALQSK

T1: BirA*–MYO1F tail (human) (UniProt O00160)
T1 sequence: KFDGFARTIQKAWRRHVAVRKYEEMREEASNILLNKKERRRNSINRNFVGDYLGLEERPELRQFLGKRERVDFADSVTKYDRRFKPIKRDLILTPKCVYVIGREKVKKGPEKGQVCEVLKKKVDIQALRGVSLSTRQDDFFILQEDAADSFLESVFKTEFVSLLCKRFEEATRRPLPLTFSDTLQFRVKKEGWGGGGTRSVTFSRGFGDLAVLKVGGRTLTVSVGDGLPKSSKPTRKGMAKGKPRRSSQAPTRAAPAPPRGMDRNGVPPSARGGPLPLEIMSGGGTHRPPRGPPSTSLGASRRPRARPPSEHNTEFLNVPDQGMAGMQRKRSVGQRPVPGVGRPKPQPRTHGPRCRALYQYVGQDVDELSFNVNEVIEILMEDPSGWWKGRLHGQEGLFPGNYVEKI

T2: BirA*–MYO1F tail PHmut (human) (UniProt O00160)
T2 sequence: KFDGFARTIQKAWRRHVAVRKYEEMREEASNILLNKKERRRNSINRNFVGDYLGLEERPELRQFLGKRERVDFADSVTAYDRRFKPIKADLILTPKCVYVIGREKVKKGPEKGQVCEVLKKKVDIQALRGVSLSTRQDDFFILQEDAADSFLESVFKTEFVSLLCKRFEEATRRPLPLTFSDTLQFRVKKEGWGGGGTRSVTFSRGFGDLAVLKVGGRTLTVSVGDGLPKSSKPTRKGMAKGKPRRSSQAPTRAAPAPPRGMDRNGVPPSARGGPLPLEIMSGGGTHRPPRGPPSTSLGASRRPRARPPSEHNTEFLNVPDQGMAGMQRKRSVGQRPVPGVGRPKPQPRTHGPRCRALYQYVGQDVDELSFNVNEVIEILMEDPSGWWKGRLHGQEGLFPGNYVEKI

T3: BirA*–MYO1E tail (human) (UniProt Q12965)
T3 sequence: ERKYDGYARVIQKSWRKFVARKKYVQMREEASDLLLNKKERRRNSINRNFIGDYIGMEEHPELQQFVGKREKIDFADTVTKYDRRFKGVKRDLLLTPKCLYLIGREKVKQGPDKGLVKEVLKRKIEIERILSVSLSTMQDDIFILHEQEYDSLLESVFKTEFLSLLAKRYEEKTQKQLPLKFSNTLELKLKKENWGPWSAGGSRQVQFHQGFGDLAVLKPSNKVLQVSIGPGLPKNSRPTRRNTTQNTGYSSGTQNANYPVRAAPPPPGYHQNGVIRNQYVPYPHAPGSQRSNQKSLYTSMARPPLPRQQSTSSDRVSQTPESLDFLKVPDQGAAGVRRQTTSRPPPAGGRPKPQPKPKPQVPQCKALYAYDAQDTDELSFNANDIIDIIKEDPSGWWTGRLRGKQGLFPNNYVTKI


Assays:
BirA*–MYO1F tail (human) [1] = target: T1, BirA*–MYO1F tail (human); test: proximity labelling; BioID in U937 cells stably expressing BirA*–MYO1F tail, PHmut or ΔSH3; 50 µM biotin for 24 h; RIPA lysis; streptavidin beads; mass spectrometry, LFQ against BirA*-only control, threshold 4-fold or greater enrichment
[2] = target: T2, BirA*–MYO1F tail PHmut (human); test: as above
BirA*–MYO1E tail (human) = target: T3, BirA*–MYO1E tail (human); test: proximity labelling; BioID in RPE cells stably expressing BirA*–MYO1E tail; biotin labelling; streptavidin pulldown; mass spectrometry, LFQ against BirA*-only control, threshold 4.5-fold or greater enrichment
BirA*–MYO1F tail (human) [3] = target: T1, BirA*–MYO1F tail (human); test: proximity labelling; BioID in U937 cells stably expressing BirA*–MYO1F tail, PHmut or ΔSH3; 50 µM biotin for 24 h; RIPA lysis; streptavidin beads; mass spectrometry, LFQ against BirA*-only control, threshold 4-fold or greater enrichment; remark: listed apart in the source
[4] = target: T2, BirA*–MYO1F tail PHmut (human); test: as above; remark: listed apart in the source

| binding (BirA*–MYO1F tail (human) [1]) | binding [2] | binding (BirA*–MYO1E tail (human)) | Molecule | also measured |
| --- | --- | --- | --- | --- |
| binds | binds |  | utrophin (UTRN) (from UniProt P46939 1-3433) |  |
|  |  | binds | FERMT2 (from UniProt Q96AC1 1-680) |  |
| binds | binds |  | SH3 domain-containing kinase-binding protein 1 (SH3KBP1) (from UniProt Q96B97 1-665) |  |
|  |  |  | ITGA6 (integrin alpha-6) (protein, UniProt P23229 24-1130) FNLDTREDNVIRKYGDPGSLFGFSLAMHWQLQPEDKRLLLVGAPRAEALPLQRANRTGGLYSCDITARGPCTRIEFDNDADPTSESKEDQWMGVTVQSQGPGGKVVTCAHRYEKRQHVNTKQESRDIFGRCYVLSQNLRIEDDMDGGDWSFCDGRLRGHEKFGSCQQGVAATFTKDFHYIVFGAPGTYNWKGIVRVEQKNNTFFDMNIFEDGPYEVGGETEHDESLVPVPANSYLGLLFLTSVSYTDPDQFVYKTRPPREQPDTFPDVMMNSYLGFSLDSGKGIVSKDEITFVSGAPRANHSGAVVLLKRDMKSAHLLPEHIFDGEGLASSFGYDVAVVDLNKDGWQDIVIGAPQYFDRDGEVGGAVYVYMNQQGRWNNVKPIRLNGTKDSMFGIAVKNIGDINQDGYPDIAVGAPYDDLGKVFIYHGSANGINTKPTQVLKGISPYFGYSIAGNMDLDRNSYPDVAVGSLSDSVTIFRSRPVINIQKTITVTPNRIDLRQKTACGAPSGICLQVKSCFEYTANPAGYNPSISIVGTLEAEKERRKSGLSSRVQFRNQGSEPKYTQELTLKRQKQKVCMEETLWLQDNIRDKLRPIPITASVEIQEPSSRRRVNSLPEVLPILNSDEPKTAHIDVHFLKEGCGDDNVCNSNLKLEYKFCTREGNQDKFSYLPIQKGVPELVLKDQKDIALEITVTNSPSNPRNPTKDGDDAHEAKLIATFPDTLTYSAYRELRAFPEKQLSCVANQNGSQADCELGNPFKRNSNVTFYLVLSTTEVTFDTPDLDINLKLETTSNQDNLAPITAKAKVVIELLLSVSGVAKPSQVYFGGTVVGEQAMKSEDEVGSLIEYEFRVINLGKPLTNLGTATLNIQWPKEISNGKWLLYLVKVESKGLEKVTCEPQKEINSLNLTESHNSRKKREITEKQIDDNRKFSLFAERKYQTLNCSVNVNCVNIRCPLRGLDSKASLILRSRLWNSTFLEEYSKLNYLDILMRAFIDVTAAAENIRLPNAGTQVRVTVFPSKTVAQYSGVPWWIILVAILAGILMLALLVFILWKCGFFKRSRYDDSVPRYHAVRIRKEEREIKDEKYIDNLEKKQWITKWNENESYS | binding (BirA*–MYO1F tail (human) [3]): binds; binding [4]: binds |
|  |  | binds | CDC42EP1 (protein, UniProt Q00587 1-391) MPGPQGGRGAATMSLGKLSPVGWVSSSQGKRRLTADMISHPLGDFRHTMHVGRGGDVFGDTSFLSNHGGSSGSTHRSPRSFLAKKLQLVRRVGAPPRRMASPPAPSPAPPAISPIIKNAISLPQLNQAAYDSLVVGKLSFDSSPTSSTDGHSSYGLDSGFCTISRLPRSEKPHDRDRDGSFPSEPGLRRSDSLLSFRLDLDLGPSLLSELLGVMSLPEAPAAETPAPAANPPAPTANPTGPAANPPATTANPPAPAANPSAPAATPTGPAANPPAPAASSTPHGHCPNGVTAGLGPVAEVKSSPVGGGPRGPAGPALGRHWGAGWDGGHHYPEMDARQERVEVLPQARASWESLDEEWRAPQAGSRTPVPSTVQANTFEFADAEEDDEVKV |  |
